Among the data in publication PMC6072853 (Frontiers in Pharmacology, 2018) are IC50 values, retold here.

This test concerns MCF-7. The test can be described thus: MTT antiproliferative assay, MCF-7. Format: cell-based, human. Conditions: MCF-7, 72 h; read-out: calculated IC50 value. From the text: Gynecological cancer cell lines, including ovarian (A2780), cervical (HeLa), and breast cancer cell lines (MCF7, T47D, MDA-MB-231, and MDA-MB-361) were purchased from the European Collection of Authenticated Cell Cultures (ECACC, Salisbury, United Kingdom). Additional cervical cell lines (SiHa and C33A) and a non-cancerous immortalized, mammary gland epithelial cell line (hTERT-HME1) were purchased from LGC Standards GmbH (Wesel, Germany). Non-cancerous fibroblast cells (MRC-5) were also obtained from the ECACC. All cells were cultured in minimal essential medium supplemented with 10% fetal bovine serum, 1% non-essential amino acids, and 1% antibiotic-antimycotic mixture, in humidified air containing 5% CO2 at 37°C. Immortalized hTERT-HME1 cells were maintained in serum-free mammary epithelial cell growth medium (MEGM) supplemented with insulin, human epidermal growth factor (hEGF), hydrocortisone, bovine pituitary extract, and an antibiotic-antimycotic mixture. All the medium and supplements were purchased from Lonza Group Ltd. (Basel, Switzerland).
The antiproliferative properties of the compounds were assessed by an MTT assay ([Mosmann, 1983]). Cells were seeded onto 96-well microplates at a density of 10,000 cells/well (MDA-MB-361 and C33A) or 5,000 cells/well (all other cell lines). […]

For orientation: IC50 means the concentration that gives 50% inhibition. Turning to `N.N.[Cl][Pt][Cl]` [CIS, cisplatin, reference compound], the IC50 was 5.78 µM.
